The exact form of at least one protein or probe is not confirmed. For some assays here: Negatives hold for the conditions tested. For some assays here: At least one verdict rests on a figure or table, not on a statement of the authors. For some assays here: Weaker means in comparison with the reference protein, sequence or condition of that experiment.
What follows are sequences tested on His-BSD1 (Solanum lycopersicum (tomato)) (assay: EMSA). Settings: LightShift chemiluminescent EMSA kit (buffer per manufacturer, not stated), 20 min at room temperature, 10% native polyacrylamide gel; recombinant protein; protein details: His (N-terminal implied by construct name); label: biotin 3'.
“CTTATTTCCTTATTTCCTTATTTCCTTATTTC (double strand) [Tru21 (CTTATTTC, 4 copies)]”: binds. “CTTATTTTCTTATTTTCTTATTTTCTTATTTT (double strand) [M2-2 (CTTATTTT, 4 copies)]”: no binding. “TAACTTATTTCCAACTTGAATAACTTATTTCCAACTTGAATAACTTATTTCCAACTTGAA (double strand) [CPS2 promoter probe (3 copies)]”: binds. “CCATTTTACTCCATTTTACTCCATTTTACTCCATTTTACT (double strand) [Tru14]”: no binding. “CTTATTTCTCCATTCTTATTTCTCCATTCTTATTTCTCCATT (double strand) [Tru2 (3 copies)]”: binds. “CTTATTTCTCCATTTTACTC (double strand) [S2-3-2]”: binds. “CTTATTTAAAAATTTTACTCCTTATTTAAAAATTTTACTCCTTATTTAAAAATTTTACTC (double strand) [Mut2 (3 copies)]”: binds. “TTCTCCATTTTACTCTTCTCCATTTTACTCTTCTCCATTTTACTC (double strand) [Tru1 (3 copies)]”: no binding. “CTTATTTGCTTATTTGCTTATTTGCTTATTTG (double strand) [M2-3 (CTTATTTG, 4 copies)]”: no binding. “CTTATTTACTTATTTACTTATTTACTTATTTA (double strand) [M2-1 (CTTATTTA, 4 copies)]”: binds. “CATTACACTTATTTAGTAGACATTACACTTATTTAGTAGACATTACACTTATTTAGTAGA (double strand) [GA3ox4 promoter probe (3 copies)]”: binds more weakly. “TCCTTATTTATGTGATATAATCCTTATTTATGTGATATAATCCTTATTTATGTGATATAA (double strand) [KAO promoter probe (3 copies)]”: binds. “CTTAAAACTCCATTTTACTCCTTAAAACTCCATTTTACTCCTTAAAACTCCATTTTACTC (double strand) [Mut1 (S2-3-2 mutant, 3 copies)]”: no binding.

These sequences were tested on His-BSD1 (Solanum lycopersicum (tomato)) (assay: competition with a labelled probe). Settings: 50-fold unlabeled S2-3-2 abolishes binding; LightShift chemiluminescent EMSA kit (buffer per manufacturer, not stated), 20 min at room temperature, 10% native polyacrylamide gel; recombinant protein; protein details: His (N-terminal implied by construct name); label: biotin 3'.
“CTTATTTCTCCATTTTACTC (double strand) [S2-3-2]”: binds.

Reference: PMC11633369
